Measured values: patent US20060241082A1, “Modulating vesicular monoamine transporter trafficking and function: a novel approach for the treatment of parkinson's disease” (priority 2002, published 2006)

Assay: Core (rectal) body temperature of treated rats
Type: in vivo, rat

## CN[C@@H](C)Cc1ccccc1 (racemic) [METH, methamphetamine]
METH 15 mg/kg s.c., 6° C. ambient
  core body temperature in METH-treated rats exposed to the cool environment: 38.1±0.1 °C
rats, METH 15 mg/kg s.c., 24° C. ambient
  core body temperature after METH: 40.1±0.1 °C and 40.5±0.1 °C

## COC(=O)C(c1ccccc1)C1CCCCN1 (centres unmarked) [MPD, methylphenidate]
rats, MPD 5 mg/kg s.c., METH 4 x 7.5 mg/kg s.c.
  effect of MPD on the hyperthermia induced acutely by METH: nor did it prevent

## CCc1cc(Cl)c(OC)c(C(=O)NC[C@@H]2CCCN2CC)c1O [eticlopride, (−)-Eticlopride hydrochloride]
28.5° C. ambient
  body temperature in eticlopride-pretreated METH-treated rats exposed to warmer ambient temperature: 39.8±0.1 DC
Eticlopride 0.5 mg/kg i.p. 15 min prior to METH 15 mg/kg s.c., 24° C. ambient
  core body temperature in METH-treated rats pretreated with eticlopride: 38.4±0.1 °C

Values joined by “and” are separate entries in the source; they are usually repeats but may differ in a detail not shown here. Equal values may be shown once. Where a name gives a salt, the structure may show the parent alone.
